Here are results for 1 compound from patent US7776833B2, “Use of cyclic bioisosters of purine system derivatives for treating diseases produced by disorders of niterergic and dopaminergic systems” (priority 2003, dated 2010).

In assay [1] the test system is physical dependence from morphine (morphine abstinence). Put plainly: Morphine abstinence syndrome, signs scored in the open field test. It counts as in vivo, Wistar rats. The note with it: Control − morphine, 36 h after last morphine injection. How it is done: Thirty six hours after the last injection selected motor and autonomice parameters which are specific symptoms of abstinence were monitored in the <<open field>> test (an arena with a diameter of 120 cm and wall height of 40 cm).
Med., 2002, V.29, p.1-6.). The observable signs were recorded quantitatively (if it was possible) with further assignment of an index to each sign (depending on the specific feature of the sign) and calculation of the sum of scores. The expression of the abstinence syndrome was presented as a sum of scores. The results were processed using nonparametric statistical analysis based on the Mann-Whitney test.

Assay [2] concerns nitrites and nitrates (NOx-). Put plainly: Measurement of nitrates/nitrites (NOx-) in brain regions after the morphine abstinence experiment. It counts as in vivo, Wistar rats. To be noted: Group No. 2 (morphine). How it is done:
After the above experiments the rat brains were isolated and immediately placed in the ice cold 0.9% solution of sodium chloride. After cooling the following structures were isolated from the brain: cerebral cortex, hippocampus, mesencephalon, striatum, brainstem, hypothalamus and cerebellum. The isolated tissue was homogenized in a Potter S homogenizer for 3 minutes at 1500 rpm in 4-5 volumes of 20 mM HEPES (pH 7.5) at 4° C. […]
To estimate the intensity of metabolism of nitric oxide in rats, quantitative determination of stable metabolites of nitrogen oxide-nitrites and nitrates (NOx-) was performed using a fluorometric method by fluorescence of naphthotriazole, a product of reaction of 2,3- diaminonaphthalene (DAN) and nitrite in an acidic medium (Misko T. R., Schilling R. J., Salvemini D. et al. A fluorometric assay for the measurement of nitrite in biological samples. Anal. Biochem., 1993, V. 214, p.11-16) with modifications (Lei B., Adachi N., Nagaro T., Arai T. Measurement of total nitric oxide metabolite (NO (x) (-)) levels in vivo. […]
The supernatants of brain deproteinized at 100° C. were placed in a nitrite recovery system containing 0.125 unit/ml of nitrate reductase, 25 μM NADPH and 25 μM FAD prepared in 20 mM Tris-HCl buffer pH 7.6 and incubated for 30 minutes at 37° C. […] For stabilization of fluorescence of the formed naphthotriazole, 280 mM NaOH was added. […]

On to `CN1CC[C@]23c4c5ccc(O)c4O[C@H]2[C@@H](O)C=C[C@H]3[C@H]1C5.Cl` [morphine, morphine hydrochloride, reference compound], for which the “Authentic differences (ξ-square criterion) in appearance of signs of abstinence: Mastication” value in assay [1] came to 0.0308. Also, in assay [2], the “Nitrites, brainstem” value is reported as 7.63 ± 0.96 nmol/mg of protein and the “Nitrites, striatum” value is 4.92 ± 0.43 nmol/mg of protein.
